From publication PMC9998874
Results are given in words; binding and its absence hold for the method and conditions named. Binding seen in cells or lysates may run through a third protein. Some results given as binding are weak or reduced against the parent protein; the word gives no strength.

Sequences of proteins named here, by UniProt entry; tags and fusion partners are left off. A change or cut given only in a name is not applied to a line headed by its entry.
UniProt Q13185: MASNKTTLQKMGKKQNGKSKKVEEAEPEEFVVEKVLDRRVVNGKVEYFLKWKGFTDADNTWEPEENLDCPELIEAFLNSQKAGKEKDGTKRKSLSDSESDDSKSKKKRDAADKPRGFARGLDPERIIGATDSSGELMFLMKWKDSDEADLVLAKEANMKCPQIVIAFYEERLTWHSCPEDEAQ
UniProt Q13547: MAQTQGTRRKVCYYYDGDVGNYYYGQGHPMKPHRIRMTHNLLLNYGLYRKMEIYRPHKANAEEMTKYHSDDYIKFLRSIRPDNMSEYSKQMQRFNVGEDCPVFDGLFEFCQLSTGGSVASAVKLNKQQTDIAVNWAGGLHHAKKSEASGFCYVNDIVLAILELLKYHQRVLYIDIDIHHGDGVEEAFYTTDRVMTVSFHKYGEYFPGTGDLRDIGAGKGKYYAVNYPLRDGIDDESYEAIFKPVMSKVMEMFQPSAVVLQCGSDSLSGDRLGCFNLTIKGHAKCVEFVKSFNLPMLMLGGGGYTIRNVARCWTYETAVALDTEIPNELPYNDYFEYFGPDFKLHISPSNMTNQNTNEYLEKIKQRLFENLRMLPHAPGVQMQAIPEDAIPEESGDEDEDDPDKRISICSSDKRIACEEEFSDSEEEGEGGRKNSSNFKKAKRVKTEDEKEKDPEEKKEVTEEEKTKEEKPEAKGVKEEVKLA
UniProt Q14676: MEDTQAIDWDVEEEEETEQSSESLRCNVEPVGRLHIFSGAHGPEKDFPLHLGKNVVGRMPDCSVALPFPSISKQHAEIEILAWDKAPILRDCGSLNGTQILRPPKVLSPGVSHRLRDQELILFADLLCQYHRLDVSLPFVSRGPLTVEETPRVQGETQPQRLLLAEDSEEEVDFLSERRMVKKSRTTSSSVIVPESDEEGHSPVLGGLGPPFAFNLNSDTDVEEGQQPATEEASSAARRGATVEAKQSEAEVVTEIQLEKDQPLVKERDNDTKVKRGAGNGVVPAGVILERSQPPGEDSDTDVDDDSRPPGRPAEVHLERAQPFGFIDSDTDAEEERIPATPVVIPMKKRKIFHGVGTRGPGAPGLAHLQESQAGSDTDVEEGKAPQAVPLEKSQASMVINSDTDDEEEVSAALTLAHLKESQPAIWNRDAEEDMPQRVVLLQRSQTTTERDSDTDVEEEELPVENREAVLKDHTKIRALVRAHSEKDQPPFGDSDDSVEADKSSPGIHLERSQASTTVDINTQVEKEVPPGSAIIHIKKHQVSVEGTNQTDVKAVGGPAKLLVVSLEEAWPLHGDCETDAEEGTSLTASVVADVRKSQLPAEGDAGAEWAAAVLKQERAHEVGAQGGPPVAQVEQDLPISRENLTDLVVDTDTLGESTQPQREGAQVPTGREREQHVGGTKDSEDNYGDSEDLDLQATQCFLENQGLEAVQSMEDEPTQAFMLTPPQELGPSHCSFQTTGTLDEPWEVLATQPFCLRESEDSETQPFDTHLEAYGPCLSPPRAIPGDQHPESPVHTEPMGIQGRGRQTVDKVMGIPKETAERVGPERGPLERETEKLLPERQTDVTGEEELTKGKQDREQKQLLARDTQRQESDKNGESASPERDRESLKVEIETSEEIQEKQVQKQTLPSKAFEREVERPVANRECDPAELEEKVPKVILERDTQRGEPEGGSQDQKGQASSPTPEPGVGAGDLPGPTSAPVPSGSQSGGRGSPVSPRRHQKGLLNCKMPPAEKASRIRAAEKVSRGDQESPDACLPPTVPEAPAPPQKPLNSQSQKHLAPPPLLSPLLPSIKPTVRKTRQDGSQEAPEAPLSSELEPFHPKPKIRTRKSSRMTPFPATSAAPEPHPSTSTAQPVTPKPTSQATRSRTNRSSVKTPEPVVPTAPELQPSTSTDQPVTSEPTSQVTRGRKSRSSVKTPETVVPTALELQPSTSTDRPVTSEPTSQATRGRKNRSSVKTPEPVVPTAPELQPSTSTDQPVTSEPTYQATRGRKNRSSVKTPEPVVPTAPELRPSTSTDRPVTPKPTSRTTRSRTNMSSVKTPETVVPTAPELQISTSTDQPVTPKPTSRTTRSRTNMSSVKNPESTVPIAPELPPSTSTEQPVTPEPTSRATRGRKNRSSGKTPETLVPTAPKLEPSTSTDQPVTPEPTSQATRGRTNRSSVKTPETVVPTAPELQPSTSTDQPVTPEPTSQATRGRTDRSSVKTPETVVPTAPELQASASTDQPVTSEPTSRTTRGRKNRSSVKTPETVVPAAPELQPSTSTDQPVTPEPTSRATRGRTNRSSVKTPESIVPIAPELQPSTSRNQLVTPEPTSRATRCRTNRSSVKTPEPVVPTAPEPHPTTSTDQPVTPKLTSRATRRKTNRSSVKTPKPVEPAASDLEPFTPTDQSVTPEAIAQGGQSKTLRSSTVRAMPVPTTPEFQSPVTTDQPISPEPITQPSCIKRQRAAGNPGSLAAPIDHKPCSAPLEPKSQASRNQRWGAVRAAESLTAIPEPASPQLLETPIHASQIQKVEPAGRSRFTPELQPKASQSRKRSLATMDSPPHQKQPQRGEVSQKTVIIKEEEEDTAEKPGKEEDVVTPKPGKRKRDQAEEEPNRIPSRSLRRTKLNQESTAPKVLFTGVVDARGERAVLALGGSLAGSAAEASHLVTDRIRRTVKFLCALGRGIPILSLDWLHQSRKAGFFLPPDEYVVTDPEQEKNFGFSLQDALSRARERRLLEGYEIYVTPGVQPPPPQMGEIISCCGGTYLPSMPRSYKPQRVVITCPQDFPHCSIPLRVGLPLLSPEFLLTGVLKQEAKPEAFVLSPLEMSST
UniProt Q92769: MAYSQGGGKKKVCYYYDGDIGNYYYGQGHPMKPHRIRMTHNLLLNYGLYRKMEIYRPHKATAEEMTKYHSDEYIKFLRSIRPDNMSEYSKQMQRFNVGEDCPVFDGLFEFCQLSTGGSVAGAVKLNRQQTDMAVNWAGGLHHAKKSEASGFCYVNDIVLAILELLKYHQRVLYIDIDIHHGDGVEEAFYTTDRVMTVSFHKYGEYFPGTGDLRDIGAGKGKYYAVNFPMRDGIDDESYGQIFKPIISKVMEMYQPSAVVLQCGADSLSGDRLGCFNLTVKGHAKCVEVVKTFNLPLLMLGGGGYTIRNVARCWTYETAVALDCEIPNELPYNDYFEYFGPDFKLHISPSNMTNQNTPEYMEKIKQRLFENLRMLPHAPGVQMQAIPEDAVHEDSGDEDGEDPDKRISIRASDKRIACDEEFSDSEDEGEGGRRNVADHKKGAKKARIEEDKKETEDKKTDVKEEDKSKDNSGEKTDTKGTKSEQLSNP

Columns and labels:
HP1γ-K5Q = HP1γ-K5Q (UniProt Q13185); test: co-IP; HP1γ-WT, -K5R and -K5Q immunoprecipitated; blots for MDC1, HDAC1 and H3K9me3 (Supplementary Fig. 6e); cells not given
HP1γ-K5R = HP1γ-K5R (UniProt Q13185); test: as above
[1] = target: HP1γ-WT (immunoprecipitated, Supplementary Fig. 6e) (UniProt Q13185); test: as above
flag-tagged HP1γ = flag-tagged HP1γ (UniProt Q13185); test: co-IP; exogenously expressed proteins; NP-40 lysis buffer (50 mM Tris-HCl pH 7.4, 150 mM NaCl), anti-FLAG M2 affinity gel at 4 °C overnight, blot with anti-GFP
[2] = target: HP1γ-flag (lentiviral, in WT and BR MM cells) (UniProt Q13185); test: co-IP; flag pull-down (silver staining) and IP from WT and BR LP-1 and MM.1 S cells infected with HP1γ-flag lentivirus for 72 h; input 2% lysate
[3] = target: endogenous HP1γ (human (endogenous in MM.1 S and LP-1)) (UniProt Q13185); test: co-IP; endogenous proteins in MM.1 S cells; input 2% whole cell lysate
[4] = target: HDAC1-flag fusion protein in LP-1 cells (UniProt Q13547); test: co-IP; HDAC1-flag fusion protein immunoprecipitated from LP-1 cells
[5] = target: endogenous MDC1 (Fig. 3f) (UniProt Q14676); test: co-IP; endogenous HP1γ and MDC1, both directions; input 2% whole cell lysate; cells not named
[6] = target: endogenous HP1γ (human (endogenous in MM.1 S and LP-1)) (UniProt Q13185); test: as above

Substance: HDAC1 (co-precipitated with HP1γ-WT, -K5R, -K5Q; Supplementary Fig. 6e) (from UniProt Q13547 1-482) (enzyme)
- binding (HP1γ-K5Q): binds
- binding (HP1γ-K5R): binds
- binding [1]: binds

Substance: MDC1 (co-precipitated with HP1γ-WT, -K5R, -K5Q; Supplementary Fig. 6e) (from UniProt Q14676 1-2089)
- binding (HP1γ-K5Q): binds
- binding (HP1γ-K5R): binds
- binding [1]: binds

Substance: MDC1-GFP (from UniProt Q14676 1-2089)
- binding (flag-tagged HP1γ): binds

Substance: endogenous HDAC1 in MM cells (from UniProt Q13547 1-482) (enzyme)
- binding [2]: binds
- binding [3]: binds

Substance: endogenous HDAC2 in MM cells (from UniProt Q92769 1-488) (enzyme)
- binding [3]: binds

Substance: endogenous HP1γ (from UniProt Q13185 1-183)
- binding [4]: binds
- binding [5]: binds

Substance: endogenous MDC1 (Fig. 3f) (from UniProt Q14676 1-2089)
- binding [6]: binds
